Data source: PubChem BioAssay AID504793 (Drosophila RNAi Screening Center, 2011)
Screen: 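Genes required for cells to halt at G2/M after double-strand DNA breaks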 (primary screen). Cells: Drosophila S2R+ cells. Reagent: long dsRNA against Drosophila genes, about 0.25 µg dsRNA per well. Timing: 4 days of dsRNA, then 4 hours of drug before read-out. Challenge: doxorubicin 0.5 µM for 4 hours to cause double-strand breaks, in cells also given a low, harmless dose of dsRNA against nbs to sensitise the assay. Detection: 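Per-well count of mitotic cells stained for phospho-histone H3 after doxorubicin exposure, used as mitotic index; counts are raw and not normalised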. Reading the numbers: mitotic cells: higher = more cells in mitosis, weaker G2 arrest. Hit rule: 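a call needs confirmation in secondary tests, with other dsRNAs and a check of mitotic timing without damage, not just a high primary count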. Calls: active = confirmed in follow-up tests; inactive = not confirmed.
The deposit covers about 23,000 reagents; this is an unselected part of those that have a named target and a result. In the full data, 62 (0.27%) were called active. 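Calls come from follow-up tests whose scores are not deposited, so confirmed genes may have low counts here; counts are not normalised per plate.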 The raw values are shown without normalisation. Entries without a mark were called inactive. Reagents against one gene are numbered here. Names joined by + are all predicted targets of the reagent.

Gene	reagent no.	mitotic cells, replicate 1	mitotic cells, replicate 2
CG3036	1	19	
CG3036	2	5	
CG3036	3	7	
Cnb	1	8	
CG42326	1	5	
CG42326	2	8	
CG42326	3	5	
l(2)09851	1	7	
Nazo	1	5	
CG8004	1	6	
CG8004	2	3	
CG7634	1	11	
CG9961	1	6	
CG9961	2	8	
CG30047	1	8	
indra	1	6	
indra	2	8	
Sclp	1	2	
Mitf	1	10	
Mitf	2	18	
gcm	1	10	8
RhoGAP71E	1	5	
RhoGAP71E	2	4	
RhoGAP71E	3	5	
H	1	11	
H	2	4	
Nulp1	1	8	
CG14492	1	8	
Myo61F	1	8	
Myo61F	2	6	
CG13239	1	7	
HDAC11	1	13	
HDAC11	2	6	
Egfr	1	8	
Egfr	2	4	
CG7271	1	12	
DMAP1	1	5	
DMAP1	2	7	
CG32243	1	16	
CheB38a	1	1	10
CheB38a	2	7	
Mvl	1	4	
Wnk	1	1	
Gr68a	1	6	
CG5506	1	2	
CG4438	1	1	
CG4438	2	8	
Dys + snoRNA:Me18S-A1374	1	12	
epsilonCOP	1	6	
epsilonCOP	2	9	
mira	1	9	
mira	2	4	
papi	1	4	
MYPT-75D	1	3	
SF2	1	22 (active)	
CG13998	1	4	
Tig	1	1	
Tig	2	5	
Smr	1	22	
Smr	2	15	
CG16926	1	9	
KrT95D	1	11	
KrT95D	2	12	
CG33285	1	6	
CG33285	2	5	
E(z)	1	1	
E(z)	2	9	
CG13458	1	2	
CG13458	2	5	
alphaTry	1	4	
Hk	1	5	
Hk	2	8	
Hk	3	3	
CG13970	1	9	
CG13970	2	5	

Records above whose target name begins with G or g (2):
Gene	reagent no.	mitotic cells, replicate 1	mitotic cells, replicate 2
gcm	1	10	8
Gr68a	1	6	
